# System: MCF-7 tumor cells
# Conditions: 1 week after First Administration, 500 μM, nude mouse
# Method: Weekly administration of experiment compound was initiated 2 days after measurement of tumor size. The concentration of the first administration was 500 μM, respectively.
row,SMILES,Weight [g]
1,C=CCNc1nc(NCCCC)nc(NCc2ccc(C(=O)NCCOCCOCCNC(=O)c3ccccc3)cc2)n1 [Dan-BC1],19.5
2,CCCCNc1nc(NCc2ccncc2)nc(NCc2ccc(C(=O)NCCOCCOCCNC(=O)c3ccccc3)cc2)n1 [Dan-BC2],20.5
3,CCCCNc1nc(NCc2ccc(C(=O)NCCOCCOCCNC(=O)c3ccccc3)cc2)nc(NC(CC)CC)n1 [Dan-BC3],20.5

# Same assay, conditions: 1 day before First Administration, nude mouse
row,SMILES,Weight [g]
1,C=CCNc1nc(NCCCC)nc(NCc2ccc(C(=O)NCCOCCOCCNC(=O)c3ccccc3)cc2)n1 [Dan-BC1],18.5
2,CCCCNc1nc(NCc2ccncc2)nc(NCc2ccc(C(=O)NCCOCCOCCNC(=O)c3ccccc3)cc2)n1 [Dan-BC2],19.5
3,CCCCNc1nc(NCc2ccc(C(=O)NCCOCCOCCNC(=O)c3ccccc3)cc2)nc(NC(CC)CC)n1 [Dan-BC3],19.5

# Same assay, conditions: the day of First Administration, 500 μM, nude mouse
row,SMILES,Weight [g]
1,C=CCNc1nc(NCCCC)nc(NCc2ccc(C(=O)NCCOCCOCCNC(=O)c3ccccc3)cc2)n1 [Dan-BC1],21.2
2,CCCCNc1nc(NCc2ccncc2)nc(NCc2ccc(C(=O)NCCOCCOCCNC(=O)c3ccccc3)cc2)n1 [Dan-BC2],21.2
3,CCCCNc1nc(NCc2ccc(C(=O)NCCOCCOCCNC(=O)c3ccccc3)cc2)nc(NC(CC)CC)n1 [Dan-BC3],21.2

# — patent US20090258878A1, “TRIAZINE DERIVATIVE COMPOUND AND COMPOSITION FOR TREATING CANCER […]” (priority 2006, published 2009)
